# No constants are given. Whether binding was seen depends on the method and setting. Binding seen in cells or lysates may run through a third protein. Here binding means that the protein was enriched with, or labelled near, the bait; the list need not be complete.
# Protein sequences, listed by entry. Tags and fused reporters are not part of them. Lines headed by an entry give the natural chain unless they say otherwise; changes in a name come on top.
# UniProt Q460N5, whole entry: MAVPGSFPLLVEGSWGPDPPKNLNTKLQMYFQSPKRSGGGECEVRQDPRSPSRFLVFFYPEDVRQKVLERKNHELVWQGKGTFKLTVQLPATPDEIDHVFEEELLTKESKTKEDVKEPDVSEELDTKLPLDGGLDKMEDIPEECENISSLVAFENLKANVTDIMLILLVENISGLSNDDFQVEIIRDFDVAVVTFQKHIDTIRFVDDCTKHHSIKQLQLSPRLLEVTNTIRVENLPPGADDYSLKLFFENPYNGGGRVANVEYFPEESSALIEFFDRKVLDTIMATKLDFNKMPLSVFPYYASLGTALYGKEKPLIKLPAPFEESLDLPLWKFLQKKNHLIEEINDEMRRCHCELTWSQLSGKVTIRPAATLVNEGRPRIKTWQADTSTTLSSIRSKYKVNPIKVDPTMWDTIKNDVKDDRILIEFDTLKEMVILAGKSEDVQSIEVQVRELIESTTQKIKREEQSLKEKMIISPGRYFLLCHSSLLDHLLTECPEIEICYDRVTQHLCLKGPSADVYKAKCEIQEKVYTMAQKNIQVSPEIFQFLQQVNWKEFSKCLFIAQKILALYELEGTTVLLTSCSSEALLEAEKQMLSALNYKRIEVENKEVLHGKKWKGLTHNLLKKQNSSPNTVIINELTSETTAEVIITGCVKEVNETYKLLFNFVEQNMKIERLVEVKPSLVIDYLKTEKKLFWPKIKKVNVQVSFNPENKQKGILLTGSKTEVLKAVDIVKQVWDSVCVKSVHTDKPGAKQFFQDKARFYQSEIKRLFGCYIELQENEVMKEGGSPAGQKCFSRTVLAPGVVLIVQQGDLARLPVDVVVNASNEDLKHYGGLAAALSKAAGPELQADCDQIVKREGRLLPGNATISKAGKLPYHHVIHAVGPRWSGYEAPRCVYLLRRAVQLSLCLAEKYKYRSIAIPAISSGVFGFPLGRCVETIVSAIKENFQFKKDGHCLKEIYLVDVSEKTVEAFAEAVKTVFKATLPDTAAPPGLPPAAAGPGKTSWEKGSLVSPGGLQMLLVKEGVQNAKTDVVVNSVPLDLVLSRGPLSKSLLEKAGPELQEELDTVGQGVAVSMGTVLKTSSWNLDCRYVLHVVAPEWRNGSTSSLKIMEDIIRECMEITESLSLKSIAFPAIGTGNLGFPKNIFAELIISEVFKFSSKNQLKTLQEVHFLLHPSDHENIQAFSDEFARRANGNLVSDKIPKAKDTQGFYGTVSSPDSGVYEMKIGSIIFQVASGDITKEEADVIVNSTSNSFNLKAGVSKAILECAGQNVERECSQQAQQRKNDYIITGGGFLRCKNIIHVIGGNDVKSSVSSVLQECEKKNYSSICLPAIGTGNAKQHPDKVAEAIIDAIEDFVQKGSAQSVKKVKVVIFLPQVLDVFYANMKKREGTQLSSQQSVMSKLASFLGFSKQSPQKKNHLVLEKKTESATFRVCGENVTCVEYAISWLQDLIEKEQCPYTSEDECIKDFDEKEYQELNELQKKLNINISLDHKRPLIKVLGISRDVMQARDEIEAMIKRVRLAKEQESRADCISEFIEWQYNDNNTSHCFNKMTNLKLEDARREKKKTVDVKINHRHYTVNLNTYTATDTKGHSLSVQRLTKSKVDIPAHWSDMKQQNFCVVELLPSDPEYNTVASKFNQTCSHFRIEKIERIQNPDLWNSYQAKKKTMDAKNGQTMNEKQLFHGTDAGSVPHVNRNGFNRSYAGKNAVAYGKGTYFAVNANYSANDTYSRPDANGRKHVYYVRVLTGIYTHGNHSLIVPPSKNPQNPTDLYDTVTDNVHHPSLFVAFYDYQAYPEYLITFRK
# Target: PARP14-FLAG-His (UniProt Q460N5)
# Assay: affinity purification with mass spectrometry
row,Molecule,binding
1,DNMBP (from UniProt Q6XZF7 1-1577),binds
2,THBS3 (from UniProt P49746 23-956),binds
3,RCOR3 (from UniProt Q9P2K3 1-495),binds
4,"HDAC8 (protein, UniProt Q9BY41 1-377) MEEPEEPADSGQSLVPVYIYSPEYVSMCDSLAKIPKRASMVHSLIEAYALHKQMRIVKPKVASMEEMATFHTDAYLQHLQKVSQEGDDDHPDSIEYGLGYDCPATEGIFDYAAAIGGATITAAQCLIDGMCKVAINWSGGWHHAKKDEASGFCYLNDAVLGILRLRRKFERILYVDLDLHHGDGVEDAFSFTSKVMTVSLHKFSPGFFPGTGDVSDVGLGKGRYYSVNVPIQDGIQDEKYYQICESVLKEVYQAFNPKAVVLQLGADTIAGDPMCSFNMTPVGIGKCLKYILQWQLATLILGGGGYNLANTARCWTYLTGVILGKTLSSEIPDHEFFTAYGPDYVLEITPSCRPDRNEPHRIQQILNYIKGNLKHVV",binds
5,"NCAPG2 (protein, UniProt Q86XI2 1-1143) MEKRETFVQAVSKELVGEFLQFVQLDKEASDPFSLNELLDELSRKQKEELWQRLKNLLTDVLLESPVDGWQVVEAQGEDNMETEHGSKMRKSIEIIYAITSVILASVSVINESENYEALLECVIILNGILYALPESERKLQSSIQDLCVTWWEKGLPAKEDTGKTAFVMLLRRSLETKTGADVCRLWRIHQALYCFDYDLEESGEIKDMLLECFININYIKKEEGRRFLSCLFNWNINFIKMIHGTIKNQLQGLQKSLMVYIAEIYFRAWKKASGKILEAIENDCIQDFMFHGIHLPRRSPVHSKVREVLSYFHHQKKVRQGVEEMLYRLYKPILWRGLKARNSEVRSNAALLFVEAFPIRDPNLHAIEMDSEIQKQFEELYSLLEDPYPMVRSTGILGVCKITSKYWEMMPPTILIDLLKKVTGELAFDTSSADVRCSVFKCLPMILDNKLSHPLLEQLLPALRYSLHDNSEKVRVAFVDMLLKIKAVRAAKFWKICPMEHILVRLETDSRPVSRRLVSLIFNSFLPVNQPEEVWCERCVTLVQMNHAAARRFYQYAHEHTACTNIAKLIHVIRHCLNACIQRAVREPPEDEEEEDGREKENVTVLDKTLSVNDVACMAGLLEIIVILWKSIDRSMENNKEAKLYTINKFASVLPEYLKVFKDDRCKIPLFMLMSFMPASAVPPFSCGVISTLRSREEGAVDKSYCTLLDCLCSWGQVGHILELVDNWLPTEHAQAKSNTASKGRVQIHDTRPVKPELALVYIEYLLTHPKNRECLLSAPRKKLNHLLKALETSKADLESLLQTPGGKPRGFSEAAAPRAFGLHCRLSIHLQHKFCSEGKVYLSMLEDTGFWLESKILSFIQDQEEDYLKLHRVIYQQIIQTYLTVCKDVVMVGLGDHQFQMQLLQRSLGIMQTVKGFFYVSLLLDILKEITGSSLIQKTDSDEEVAMLLDTVQKVFQKMLECIARSFRKQPEEGLRLLYSVQRPLHEFITAVQSRHTDTPVHRGVLSTLIAGPVVEISHQLRKVSDVEELTPPEHLSDLPPFSRCLIGIIIKSSNVVRSFLDELKACVASNDIEGIVCLTAAVHIILVINAGKHKSSKVREVAATVHRKLKTFMEITLEEDSIERFLYESSSRTLGELLNS",binds
6,"JCAD (protein, UniProt Q9P266 1-1359) MYSVEDLLISHGYKLSRDPPASREDNPKGRQAARTGTRAGQGLQNGHEDGPAALAHRKTSAGKGHVSDSESRRSTPRGHGEPQSTSASRTSEAGFCNQPPSAWSSHPPTGNDQAYRRRGRQEARSQKPREHENLEARGMAQAHSLPVHVREGPWEVGGRSEHVMKKPVWEEELRMSGPAKWQNVSLESWNQPRKLGRQMSDGDGERLFQDLYPFIQGEHVLNSQNKGKSRSLPRVLSPESLSCTEIPIPLNERHSPKMPPYPPTCAPNLDSTRNSEKSGCSAPFPRPKFGRPLKPPSYSSHQQSRGGADSSDSQDSQQMDAYVPRHELCLSDPGLEPPVYVPPPSYRSPPQNIPNPYLEDTVPINVCGGHSQQQSPTEKAGASGQPPSGPPGTGNEYGVSPRLPQGLPAHPRPVTAYDGFVQYIPFDDPRLRHFKLAQPQGFCEDIKLDDKSYNSSPVTAQEPAHGGMQPDGAIWNPQSLIPPSGDERGLVLADSSPRWLWGQPPGDGENSGLPNQRDRCVARGQWPDVRGSQHGHTGRQVSSPYSQGESTCETQTKLKKFQTGTRTKKSSKKKMNETIFCLVSIPVKSESHLPDRDMDNNDLKPSADQKNGSDKSPALQEQSLLSMSSTDLELQALTGSMGGRTEFQKQDLGEPEEDRQTNDLSFIHLTKHRELKHSGSWPGHRYRDQQTQTSFSEEPQSSQLLPGAKLGGPSRAALSPKCSDPAASEAQTHTAFPTGDHKQRPSARNLKGHRSLSPSSNSAFSRTSLSVDQAPTPKAGRSQPCVDVHGLGAHPGPKREVVKGEPTGPCNSKQLFGQFLLKPVSRRPWDLISQLESFNKELQEEEESSSSSSSSSSSSEESEAEPQQENRAHCRQEDVGFRGNSPEMRVEPQPRMWVPESPVCRSGRGESKSESWSEELQPGHPRAWPPSPGRFRVEEGGGAPFCSADGSTSAEKRHLEVSNGMDELAGSPFPVTRMSSRSSDAKPLPASYPAEPREPQESPKITSAFSSVKPSEAVPRKFDSGGERGAGLPLSLSNKNRGLSAPDLRSVGLTPGQEQGASELEGSLGEASTIEIPPGESLQARAARILGIEVAVESLLPGIRRAGQNQPAEPDASACTPESPQEELLSRPAPADVPRVSTDAFYGRRKCGWTKSPLFVGDRDSARRAPQAFEHSDVDGVVTSTDPVPEPEPSPLESKFFEQKDVETKPPFRSTLFHFVERTPSVAGSEKRLRSPSKVIESLQEKLASPPRRADPDRLMRMKEVSSVSRMRVLSFRNADSQEDAEELKATTRGQAGLPGGLVSPGSGDRAQRLGHSLSVSKDSISREEKEHPAAQKEKSMDQDFWCPDSYDPSRVERV",binds
7,"SLC26A2 (protein, UniProt P50443 1-739) MSSESKEQHNVSPRDSAEGNDSYPSGIHLELQRESSTDFKQFETNDQCRPYHRILIERQEKSDTNFKEFVIKKLQKNCQCSPAKAKNMILGFLPVLQWLPKYDLKKNILGDVMSGLIVGILLVPQSIAYSLLAGQEPVYGLYTSFFASIIYFLLGTSRHISVGIFGVLCLMIGETVDRELQKAGYDNAHSAPSLGMVSNGSTLLNHTSDRICDKSCYAIMVGSTVTFIAGVYQVAMGFFQVGFVSVYLSDALLSGFVTGASFTILTSQAKYLLGLNLPRTNGVGSLITTWIHVFRNIHKTNLCDLITSLLCLLVLLPTKELNEHFKSKLKAPIPIELVVVVAATLASHFGKLHENYNSSIAGHIPTGFMPPKVPEWNLIPSVAVDAIAISIIGFAITVSLSEMFAKKHGYTVKANQEMYAIGFCNIIPSFFHCFTTSAALAKTLVKESTGCHTQLSGVVTALVLLLVLLVIAPLFYSLQKSVLGVITIVNLRGALRKFRDLPKMWSISRMDTVIWFVTMLSSALLSTEIGLLVGVCFSIFCVILRTQKPKSSLLGLVEESEVFESVSAYKNLQIKPGIKIFRFVAPLYYINKECFKSALYKQTVNPILIKVAWKKAAKRKIKEKVVTLGGIQDEMSVQLSHDPLELHTIVIDCSAIQFLDTAGIHTLKEVRRDYEAIGIQVLLAQCNPTVRDSLTNGEYCKKEEENLLFYSVYEAMAFAEVSKNQKGVCVPNGLSLSSD",binds
